Assay [1] has as its target T1, GST-WT Af1521 (Archaeoglobus fulgidus) (UniProt O28751).
T1 sequence: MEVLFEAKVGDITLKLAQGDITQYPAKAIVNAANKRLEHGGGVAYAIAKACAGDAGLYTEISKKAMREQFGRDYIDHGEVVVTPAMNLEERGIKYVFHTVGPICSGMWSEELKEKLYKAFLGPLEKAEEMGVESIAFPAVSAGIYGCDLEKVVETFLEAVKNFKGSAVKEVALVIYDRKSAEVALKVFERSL
Nature of the assay: pull-down; 25 pmol auto-modified His-tagged ARTD1 with 125 pmol GST-fusion protein, 1 h, 4 °C, 1% BSA, 50 mM NaCl, 50 mM Tris-HCl pH 8, 0.05% NP-40; captured on glutathione Sepharose 4B; immunoblot; both purified. (In western blotting, separated proteins are transferred to a membrane and probed.)

Chains of the proteins cited; added tags and fusions are not shown.
UniProt P09874: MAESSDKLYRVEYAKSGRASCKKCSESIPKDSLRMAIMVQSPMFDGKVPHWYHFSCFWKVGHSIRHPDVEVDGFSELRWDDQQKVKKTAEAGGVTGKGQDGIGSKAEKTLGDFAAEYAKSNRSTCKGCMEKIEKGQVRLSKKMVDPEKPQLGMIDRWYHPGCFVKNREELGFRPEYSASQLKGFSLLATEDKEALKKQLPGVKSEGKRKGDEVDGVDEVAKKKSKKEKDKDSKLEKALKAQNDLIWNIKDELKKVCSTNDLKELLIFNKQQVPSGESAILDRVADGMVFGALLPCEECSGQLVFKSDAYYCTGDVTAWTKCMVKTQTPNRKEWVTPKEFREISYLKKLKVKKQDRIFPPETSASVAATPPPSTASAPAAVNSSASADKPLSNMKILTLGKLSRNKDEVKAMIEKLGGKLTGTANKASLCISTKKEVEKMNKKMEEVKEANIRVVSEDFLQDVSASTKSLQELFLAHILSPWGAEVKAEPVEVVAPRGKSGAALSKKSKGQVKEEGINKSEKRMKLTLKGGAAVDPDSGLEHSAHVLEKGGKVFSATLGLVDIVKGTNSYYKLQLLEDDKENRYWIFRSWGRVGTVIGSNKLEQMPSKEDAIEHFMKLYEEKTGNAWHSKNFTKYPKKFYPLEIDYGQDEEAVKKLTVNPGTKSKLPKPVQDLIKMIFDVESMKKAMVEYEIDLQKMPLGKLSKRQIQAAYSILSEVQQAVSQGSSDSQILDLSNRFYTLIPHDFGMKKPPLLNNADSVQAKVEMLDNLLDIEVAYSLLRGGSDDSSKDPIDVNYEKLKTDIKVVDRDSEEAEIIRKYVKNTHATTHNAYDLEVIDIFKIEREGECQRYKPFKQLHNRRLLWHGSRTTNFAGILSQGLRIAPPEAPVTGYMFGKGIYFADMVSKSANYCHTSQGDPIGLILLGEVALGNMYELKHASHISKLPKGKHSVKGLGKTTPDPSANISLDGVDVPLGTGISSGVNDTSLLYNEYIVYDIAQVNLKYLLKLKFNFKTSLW

The target in assay [2] is poly-ADP-ribosylated ARTD1 (UniProt P09874). The assay is described as follows: far-Western, overlay or dot blot; as a6 but with the Fc fusion at 125 or 31.25 ng/ml (Supplementary Fig. 4c); both purified.
The target is the same in assay [3]. The assay is described as follows: far-Western, overlay or dot blot; recombinant modified proteins separated by SDS-PAGE, on PVDF, blocked with 5% milk in TBS-T; probed with the Fc fusion (500 ng/ml) at 4 °C overnight; IRDye 680 goat anti-mouse antibody; both purified.

These are yes or no findings as the source states them, for the method shown. Some entries that bind do so weakly or less than the wild type. Where a sequence is shown, tags or fusion partners need not be part of it.

Take “poly-ADP-ribosylated ARTD1 (from UniProt P09874 1-1014) (enzyme)”: the binding entry in assay [1] is recorded as “binds”.

B1: Fc-WT Af1521 (Fc fusion, UniProt O28751 1-192)
chain: T1 sequence
Consider B1, for which the binding entry in assay [2] is given as “no binding (condition: at 125 or 31.25 ng/ml Fc-WT Af1521)”; in assay [3] it was “binds”.

Source of the values: PMC7566600, “Engineering Af1521 improves ADP-ribose binding and identification of ADP-ribosylated proteins” (Nature Communications, 2020).
